The other results are listed elsewhere or left out. Shown are side measurements of this screen, not its main read-out; they come without a call. Most of these compounds were active or inconclusive in the main read-out, so they are no random draw. Potencies come from curve fits of mixed quality, noted in brackets.
Test: Cell signaling CRE-BLA (Fsk stim)
Settings: CHO CRE-bla reporter (cAMP response element driving beta-lactamase), forskolin EC10, beta-lactamase ratio; measured here: 460 nm blue channel
Outline: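 Titrated compounds plus EC10 NKH 477 on CHO CRE-bla cells, 3 h, 37 °C. CCF4, 2 h RT. Ratio 460/530 nm → AC50.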

Compound | AC50
COc1cccc(C2CC(c3ccccc3Cl)Nc3nc(N)nn32)c1 (stereo not drawn) | 25.1 µM [rising, single point]
Cc1c(N=Cc2c(O)n(Cc3ccco3)c(=O)c3ccccc23)c(=O)n(-c2ccccc2)n1C | 5.01 µM [rising, partial curve]
N#Cc1c(NC(=O)Cn2cnc3ccccc3c2=O)oc(-c2ccccc2)c1-c1ccccc1 | 7.94 µM [rising, partial curve]
COCCn1c(=O)c(-c2cccs2)nc2cnc(N3CCN(C)CC3)nc21 | 10 µM [rising, partial curve]
O=C(Nc1ccc(N2CCN(C(=O)c3ccco3)CC2)c(Cl)c1)c1cc2ccccc2o1 | 6.31 µM [falling, partial curve]
COC(=O)C1=C(C)N(Cc2ccco2)C(=O)C1 | 0.00398 µM [falling, full curve]
COc1ccc(-c2noc(CSc3nc(N)c(-c4ccccc4)c(=O)[nH]3)n2)cc1OC | 20 µM [rising, single point]
CCn1c(C(C)NC(=O)c2ccc(OC)c(OC)c2)nc2ccccc21 (stereo not drawn) | 25.1 µM [rising, single point]
CCOc1cc(-c2noc(CCCC(N)=O)n2)cc(Br)c1OC | 3.98 µM [rising, partial curve, poor fit]
COc1ccc(-c2nc3cnc(N4CCOCC4)nc3n(C[C@H]3CCCO3)c2=O)cc1 | 12.6 µM [rising, partial curve]
COc1ccc(S(=O)(=O)Nc2ccc(C)cc2)cc1OC | 20 µM [rising, single point]
CCN(CCCCN1C(=O)c2ccccc2C1=O)c1ccc2c(c1)C(=O)N(C)C2=O | 2 µM [rising, full curve]
NC(=O)c1c(NC(=O)CSc2nnc(-c3ccco3)n2-c2ccccc2)sc2c1CCC2 | 15.8 µM [rising, single point]
CCN(CC)CCCN1C(=O)C(O)=C(C(=O)c2cc3ccccc3o2)C1c1ccccn1 (stereo not drawn) | 25.1 µM [rising, single point]
COc1cc(-c2ccccc2)nc(N)n1 | 2 µM [rising, partial curve]
CN1C(=O)c2ccccc2C(C(=O)NCCCN2CCCC2)C1c1c[nH]c2ccccc12 (stereo not drawn) | 0.00794 µM [falling, full curve, poor fit]
CC1(C)C(=O)Nc2ccccc2N1C(=O)COC(=O)C12CC3CC(CC(O)(C3)C1)C2 | 15.8 µM [falling, partial curve, poor fit]
COC(=O)[C@H](CCSC)NC(=O)N1CCN(c2cccc(C(F)(F)F)c2)CC1 | 3.98 µM [falling, partial curve]
CC1(C)OC(=O)C(=CNC(Cc2c[nH]c3ccccc23)C(=O)O)C(=O)O1 (stereo not drawn) | 0.126 µM [falling, full curve]
O=C(c1nsc(Cl)c1Cl)N1CCCCC1 | 0.251 µM [rising, full curve]
Cc1ccnc(-n2sc3ccccc3c2=O)n1 | 3.98 µM [falling, single point]
CC1CCCCN1C(=O)c1ccc(C(=O)N2CCCCC2C)cc1 (stereo not drawn) | 0.00398 µM [falling, full curve]

Sorted by heavy-atom count (low to high): part of the list above.
Compound | AC50
COC(=O)[C@H](CCSC)NC(=O)N1CCN(c2cccc(C(F)(F)F)c2)CC1 | 3.98 µM [falling, partial curve]
CN1C(=O)c2ccccc2C(C(=O)NCCCN2CCCC2)C1c1c[nH]c2ccccc12 (stereo not drawn) | 0.00794 µM [falling, full curve, poor fit]
Cc1c(N=Cc2c(O)n(Cc3ccco3)c(=O)c3ccccc23)c(=O)n(-c2ccccc2)n1C | 5.01 µM [rising, partial curve]

(listing goes on)

Compound | AC50
O=C(NCc1ccco1)c1ccc(CS(=O)(=O)Cc2ccc(Cl)cc2)o1 | 1.26 µM [falling, partial curve, poor fit]
CCOC(=O)c1ccc(CNC(=O)c2n[nH]c(=O)c3ccccc23)o1 | 10 µM [rising, partial curve]
O=c1oc2cc(Br)ccc2n1CSC1=NCCS1 | 10 µM [falling, partial curve]
COC(=O)[C@H](Cc1ccccc1)NC(=O)NCCc1ccc(S(N)(=O)=O)cc1 | 5.01 µM [falling, partial curve]
CCS(=O)(=O)N1CCC(C(=O)NCCc2ccc(OC)c(OC)c2)CC1 | 10 µM [falling, partial curve]
CCOC(=O)CSc1nnc(CNc2nc(-c3ccccc3)cs2)n1C | 0.00794 µM [falling, full curve, poor fit]
CCCSc1nnc2nc3c(nn12)c1ccccc1n3C | 2.51 µM [rising, partial curve]
Cc1cc2n(n1)C(c1ccccc1Cl)Nc1ccccc1-2 (stereo not drawn) | 10 µM [rising, single point]
COc1ccc(-c2nc3cnc(Nc4ccccc4)nc3n(CCC#N)c2=O)cc1 | 0.501 µM [rising, full curve]
CN(C(=O)COc1nnc(-c2cccs2)c(-c2cccs2)n1)c1ccccc1 | 0.126 µM [rising, full curve, poor fit]
O=S(=O)(NCc1csc(-c2ccccc2)n1)c1ccc(Cl)s1 | 20 µM [falling, single point]
Cc1nc2n(n1)CC(O)CS2 (stereo not drawn) | 25.1 µM [falling, single point]
Cc1cccc(N(CC(=O)Nc2c(C)n(C)n(-c3ccccc3)c2=O)S(C)(=O)=O)c1C | 1 µM [rising, single point]
Cc1sc2nc(SCC(=O)N(C)C)[nH]c(=O)c2c1C | 15.8 µM [rising, single point]
O=c1c2c3c(sc2nc2n1CCCCC2)CCCC3 | 15.8 µM [rising, partial curve]
c1ccc2c(c1)C(=NCC1CCCO1)NC2=NCC1CCCO1 (stereo not drawn) | 12.6 µM [falling, single point]
CC(=O)OC1c2c(ccc3ccc(=O)oc23)OC(C)(C)C1OC(=O)CC(C)C (stereo not drawn) | 12.6 µM [rising, single point]
CCCn1c(SCC(=O)Nc2ccccc2N2CCCCC2)nc2c1c(=O)n(C)c(=O)n2C | 6.31 µM [rising, partial curve]
CC(C)n1c(SCCCc2ccccc2)nc2c1c(=O)[nH]c(=O)n2C | 5.01 µM [rising, partial curve]
O=C(CCCSc1nnc(-c2cccs2)n1CC1CCCO1)c1ccccc1 (stereo not drawn) | 5.01 µM [rising, single point]
COC(=O)Nc1ccc2c(c1)N(C(=O)CCN1CCN3CCCC3C1)c1ccccc1CC2 (stereo not drawn) | 3.16 µM [falling, full curve, poor fit]

Source: PubChem BioAssay AID662 (National Center for Advancing Translational Sciences (NCATS), 2007)
